Results: patent publication EP4799647A1 (Shanghai Qilu Pharmaceutical Research and Development …, priority 2023, dated 2025)

Test: general procedure: solution-phase peptide synthesis; HATU/DIPEA; DMTMM
Conditions: for conjugation yield: conjugation step

Question: For “2-amino-N-[(9S)-9-benzyl-1-[(4S)-4-ethyl-8,9-difluoro-4-hydroxy-3,14-dioxo-1,3,4,12-tetrahy dropyrano[3',4':6,7]indolizino[1,2-b]quinolin-11-yl]-5,8,11-trioxo-2-oxa-4,7,10-triazadodeca n-12-yl]acetamide (C1-9)”, which step yield (late stage modification step) is on record?
Answer: 89.1%

Question: Which conjugation yield does the source give for “2-methylpropan-2-yl {[(7S)-7-benzyl-11-{[(1S,9S)-9-ethyl-5-fluoro-9-hydroxy-4-methyl-10,13-dioxo-2,3,9,10,12,15 -hexahydro-1H-cyclohexo[1,2,3-de]pyrano[3',4':6,7]indolizino[1,2-b]quinolin-1-yl]amino}-2, 5,8,11-tetraoxo-3,6,9-triazaaundecan-1-yl]amino}formate” here?
Answer: 61.2%

Question: With “9H-fluoren-9-ylmethyl {[(7S)-7-benzyl-11-{[4-(hydroxymethyl)phenyl]amino}-2,5,8,11-tetraoxo-3,6,9-triazoundecan -1-yl]amino}formate” as the substance, how does the step yield (late stage modification step) read?
Answer: 82.8%

Question: With “9H-fluoren-9-ylmethyl {[(9S)-9-benzyl-1-[(4S)-4-ethyl-8,9-difluoro-4-hydroxy-3,14-dioxo-1,3,4,12-tetrahydropyran o[3',4':6,7]indolizino[1,2-b]quinolin-11-yl]-5,8,11,14-tetraoxo-2-oxa-4,7,10,13-tetraazapenta decan-15-yl]amino}formate (C1-8)” as the substance, how does the step yield (coupling step) read?
Answer: 78.2%

Question: With “9H-fluoren-9-ylmethyl {[(9S,18S)-9-benzyl-1-[(4S)-4-ethyl-8,9-difluoro-4-hydroxy-3,14-dioxo-1,3,4,12-tetrahydropy rano[3',4':6,7]indolizino[1,2-b]quinolin-11-yl]-5,8,11,14,17,24-hexaoxo-4,7,10,13,16,23-hexaa za-2,26,29,32,35,38,41,44,47-nonaoxaoctatetracontan-18-yl]amino}formate” as the substance, how does the step yield (coupling step) read?
Answer: 44.7%

Question: With “(4-{[(22S)-1-amino-22-benzyl-14,17,20,23,26-pentaoxo-15,18,21,24-tetraaza-3,6,9,12-tetraox ahexacosan-26-yl]amino}phenyl)methyl” as the substance, how does the step yield (late stage modification step) read?
Answer: 100%

Question: Which step yield (late stage modification step) does the source give for “N-[(1S,9S)-9-ethyl-5-fluoro-9-hydroxy-4-methyl-10,13-dioxo-2,3,9,10,12,15-hexahydro-1H-c yclohexo[1,2,3-de]pyrano[3',4':6,7]indolizino[1,2-b]quinolin-1-yl]-2-{[(2S)-8-amino-2-benzyl -1,4,7-trioxo-3,6-diazaoct-1-yl]amino}acetamide” here?
Answer: 100%

Question: Which results are given for “N-[(7S)-7-benzyl-11-{[(1S,9S)-9-ethyl-5-fluoro-9-hydroxy-4-methyl-10,13-dioxo-2,3,9,10,12,1 5-hexahydro-1H-cyclohexo[1,2,3-de]pyrano[3',4':6,7]indolizino[1,2-b]quinolin-1-yl]amino}-2,5,8,11-tetraoxo-3,6,9-triazaaundecan-1-yl]”?
Answer: conjugation yield (run 1): 34.2%; conjugation yield (run 2): 30.0%; conjugation yield (run 3): 27.6%; conjugation yield (run 4): 33.9%; conjugation yield (run 5): 28.2%

Question: With “N-[(9S)-9-benzyl-1-[(4S)-4-ethyl-8,9-difluoro-4-hydroxy-3,14-dioxo-1,3,4,12-tetrahydropyra no[3',4':6,7]indolizino[1,2-b]quinolin-11-yl]-5,8,11-trioxo-2-oxa-4,7,10-triazadodecan-12-yl]-2-{[(31S)-31-amino-25,32-dioxo-26-aza-2,5,8,11,14,17,20,23-octaoxadotriacontan-32-yl]amin o}ac” as the substance, how does the step yield (late stage modification step) read?
Answer: 78.7%
